Experimental data taken from paper doi:10.1101/2023.04.10.536203.
No constants are given. Whether binding was seen depends on the method and setting. In cells and extracts the contact can be indirect. Some results given as binding are weak or reduced against the parent protein; the word gives no strength. For some assays here: Tags and fused reporters may be left off the sequences shown.

Amino acid sequences for entries named in this document (tags omitted).
UniProt Q9BUI4: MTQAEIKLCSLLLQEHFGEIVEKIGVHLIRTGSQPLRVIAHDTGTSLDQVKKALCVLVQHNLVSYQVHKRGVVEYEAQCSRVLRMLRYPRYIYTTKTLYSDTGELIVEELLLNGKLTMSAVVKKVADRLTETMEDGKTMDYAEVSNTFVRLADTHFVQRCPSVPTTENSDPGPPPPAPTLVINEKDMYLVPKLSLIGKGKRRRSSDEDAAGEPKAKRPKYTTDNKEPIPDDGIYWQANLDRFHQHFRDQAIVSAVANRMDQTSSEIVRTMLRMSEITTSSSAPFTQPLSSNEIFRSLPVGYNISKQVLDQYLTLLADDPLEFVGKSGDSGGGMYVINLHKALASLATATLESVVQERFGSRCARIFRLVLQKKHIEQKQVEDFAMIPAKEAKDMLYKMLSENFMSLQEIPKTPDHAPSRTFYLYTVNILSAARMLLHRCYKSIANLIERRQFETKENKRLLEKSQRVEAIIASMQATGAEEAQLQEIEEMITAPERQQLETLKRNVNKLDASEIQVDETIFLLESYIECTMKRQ
UniProt P0DMV8: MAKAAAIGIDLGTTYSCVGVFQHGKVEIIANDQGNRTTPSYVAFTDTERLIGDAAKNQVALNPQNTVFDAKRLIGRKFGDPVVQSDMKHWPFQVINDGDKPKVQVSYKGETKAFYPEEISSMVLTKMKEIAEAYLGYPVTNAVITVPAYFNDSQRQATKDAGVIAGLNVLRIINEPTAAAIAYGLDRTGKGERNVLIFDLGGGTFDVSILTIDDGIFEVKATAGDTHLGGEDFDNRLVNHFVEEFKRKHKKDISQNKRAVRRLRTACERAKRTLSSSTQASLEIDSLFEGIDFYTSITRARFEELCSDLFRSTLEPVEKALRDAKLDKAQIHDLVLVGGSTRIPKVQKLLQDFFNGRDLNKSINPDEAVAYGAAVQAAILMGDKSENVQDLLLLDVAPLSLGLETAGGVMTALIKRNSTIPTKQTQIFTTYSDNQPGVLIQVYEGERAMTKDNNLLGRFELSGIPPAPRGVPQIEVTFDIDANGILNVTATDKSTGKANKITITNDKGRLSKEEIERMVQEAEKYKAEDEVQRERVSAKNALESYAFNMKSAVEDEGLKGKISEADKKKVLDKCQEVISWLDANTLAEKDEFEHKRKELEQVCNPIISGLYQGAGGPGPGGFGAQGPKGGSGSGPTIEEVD

T1: 3xFLAG-Biotin-Hexahistidine tagged RPP29 (human) (UniProt O95707)
T1 sequence: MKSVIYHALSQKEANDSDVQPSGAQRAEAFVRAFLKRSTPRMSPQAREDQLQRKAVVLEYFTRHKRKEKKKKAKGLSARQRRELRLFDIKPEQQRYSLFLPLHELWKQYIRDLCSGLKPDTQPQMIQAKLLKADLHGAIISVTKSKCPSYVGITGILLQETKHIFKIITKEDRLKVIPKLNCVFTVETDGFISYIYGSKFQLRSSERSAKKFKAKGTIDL

B1: POP1 (protein, UniProt Q99575 1-1024)
chain: MSNAKERKHAKKMRNQPTNVTLSSGFVADRGVKHHSGGEKPFQAQKQEPHPGTSRQRQTRVNPHSLPDPEVNEQSSSKGMFRKKGGWKAGPEGTSQEIPKYITASTFAQARAAEISAMLKAVTQKSSNSLVFQTLPRHMRRRAMSHNVKRLPRRLQEIAQKEAEKAVHQKKEHSKNKCHKARRCHMNRTLEFNRRQKKNIWLETHIWHAKRFHMVKKWGYCLGERPTVKSHRACYRAMTNRCLLQDLSYYCCLELKGKEEEILKALSGMCNIDTGLTFAAVHCLSGKRQGSLVLYRVNKYPREMLGPVTFIWKSQRTPGDPSESRQLWIWLHPTLKQDILEEIKAACQCVEPIKSAVCIADPLPTPSQEKSQTELPDEKIGKKRKRKDDGENAKPIKKIIGDGTRDPCLPYSWISPTTGIIISDLTMEMNRFRLIGPLSHSILTEAIKAASVHTVGEDTEETPHRWWIETCKKPDSVSLHCRQEAIFELLGGITSPAEIPAGTILGLTVGDPRINLPQKKSKALPNPEKCQDNEKVRQLLLEGVPVECTHSFIWNQDICKSVTENKISDQDLNRMRSELLVPGSQLILGPHESKIPILLIQQPGKVTGEDRLGWGSGWDVLLPKGWGMAFWIPFIYRGVRVGGLKESAVHSQYKRSPNVPGDFPDCPAGMLFAEEQAKNLLEKYKRRPPAKRPNYVKLGTLAPFCCPWEQLTQDWESRVQAYEEPSVASSPNGKESDLRRSEVPCAPMPKKTHQPSDEVGTSIEHPREAEEVMDAGCQESAGPERITDQEASENHVAATGSHLCVLRSRKLLKQLSAWCGPSSEDSRGGRRAPGRGQQGLTREACLSILGHFPRALVWVSLSLLSKGSPEPHTMICVPAKEDFLQLHEDWHYCGPQESKHSDPFRSKILKQKEKKKREKRQKPGRASSDGPAGEEPVAGQEALTLGLWSGPLPRVTLHCSRTLLGFVTQGDFSMAVGCGEALGFVSLTGLLDMLSSQPAAQRGLVLLRPPASLQYRFARIAIEV
B2: RPP21 (protein, UniProt Q9H633 1-154)
chain: MAGPVKDREAFQRLNFLYQAAHCVLAQDPENQALARFYCYTERTIAKRLVLRRDPSVKRTLCRGCSSLLVPGLTCTQRQRRCRGQRWTVQTCLTCQRSQRFLNDPGHLLWGDRPEAQLGSQADSKPLQPLPNTAHSISDRLPEEKMQTQGSSNQ
B3: PolR3A (endogenous RNA Pol III component) (protein, UniProt O14802 1-1390)
chain: MVKEQFRETDVAKKISHICFGMKSPEEMRQQAHIQVVSKNLYSQDNQHAPLLYGVLDHRMGTSEKDRPCETCGKNLADCLGHYGYIDLELPCFHVGYFRAVIGILQMICKTCCHIMLSQEEKKQFLDYLKRPGLTYLQKRGLKKKISDKCRKKNICHHCGAFNGTVKKCGLLKIIHEKYKTNKKVVDPIVSNFLQSFETAIEHNKEVEPLLGRAQENLNPLVVLNLFKRIPAEDVPLLLMNPEAGKPSDLILTRLLVPPLCIRPSVVSDLKSGTNEDDLTMKLTEIIFLNDVIKKHRISGAKTQMIMEDWDFLQLQCALYINSELSGIPLNMAPKKWTRGFVQRLKGKQGRFRGNLSGKRVDFSGRTVISPDPNLRIDEVAVPVHVAKILTFPEKVNKANINFLRKLVQNGPEVHPGANFIQQRHTQMKRFLKYGNREKMAQELKYGDIVERHLIDGDVVLFNRQPSLHKLSIMAHLARVKPHRTFRFNECVCTPYNADFDGDEMNLHLPQTEEAKAEALVLMGTKANLVTPRNGEPLIAAIQDFLTGAYLLTLKDTFFDRAKACQIIASILVGKDEKIKVRLPPPTILKPVTLWTGKQIFSVILRPSDDNPVRANLRTKGKQYCGKGEDLCANDSYVTIQNSELMSGSMDKGTLGSGSKNNIFYILLRDWGQNEAADAMSRLARLAPVYLSNRGFSIGIGDVTPGQGLLKAKYELLNAGYKKCDEYIEALNTGKLQQQPGCTAEETLEALILKELSVIRDHAGSACLRELDKSNSPLTMALCGSKGSFINISQMIACVGQQAISGSRVPDGFENRSLPHFEKHSKLPAAKGFVANSFYSGLTPTEFFFHTMAGREGLVDTAVKTAETGYMQRRLVKSLEDLCSQYDLTVRSSTGDIIQFIYGGDGLDPAAMEGKDEPLEFKRVLDNIKAVFPCPSEPALSKNELILTTESIMKKSEFLCCQDSFLQEIKKFIKGVSEKIKKTRDKYGINDNGTTEPRVLYQLDRITPTQVEKFLETCRDKYMRAQMEPGSAVGALCAQSIGEPGTQMTLKTFHFAGVASMNITLGVPRIKEIINASKAISTPIITAQLDKDDDADYARLVKGRIEKTLLGEISEYIEEVFLPDDCFILVKLSLERIRLLRLEVNAETVRYSICTSKLRVKPGDVAVHGEAVVCVTPRENSKSSMYYVLQFLKEDLPKVVVQGIPEVSRAVIHIDEQSGKEKYKLLVEGDNLRAVMATHGVKGTRTTSNNTYEVEKTLGIEAARTTIINEIQYTMVNHGMSIDRRHVMLLSDLMTYKGEVLGITRFGLAKMKESVLMLASFEKTADHLFDAAYFGQKDSVCGVSECIIMGIPMNIGTGLFKLLHKADRDPNPPKRPLIFDTNEFHIPLVT

Key:
Assay in all cases: co-IP
[1] = target: 3xFLAG-Biotin-Hexahistidine tagged POLR3C (human) (UniProt Q9BUI4)
[2] = target: T1, 3xFLAG-Biotin-Hexahistidine tagged RPP29 (human)
[3] = target: 3xFLAG-Biotin-Hexahistidine tagged HSPA1A (human) (UniProt P0DMV8)

Molecule	binding [1]	binding [2]	binding [3]
HSPA1A/B (endogenous Heat-Shock Protein 70) (from UniProt P0DMV8 1-641)	binds	binds	
B1		binds	
B2		binds	
B3			binds
